According to patent publication US10407503B2, “Fully human antibodies and fragments recognizing human c-Met” (THE REGENTS OF THE UNIVERSITY OF CALIFORNIA, priority 2012, dated 2019):
No constants are given. Whether binding was seen depends on the method and setting. Some binding calls cover weakened binding; strength is not graded here.

Amino acid sequences for entries named in this document (tags omitted). Residues count along the entry.
UniProt P08581, residues 25-932: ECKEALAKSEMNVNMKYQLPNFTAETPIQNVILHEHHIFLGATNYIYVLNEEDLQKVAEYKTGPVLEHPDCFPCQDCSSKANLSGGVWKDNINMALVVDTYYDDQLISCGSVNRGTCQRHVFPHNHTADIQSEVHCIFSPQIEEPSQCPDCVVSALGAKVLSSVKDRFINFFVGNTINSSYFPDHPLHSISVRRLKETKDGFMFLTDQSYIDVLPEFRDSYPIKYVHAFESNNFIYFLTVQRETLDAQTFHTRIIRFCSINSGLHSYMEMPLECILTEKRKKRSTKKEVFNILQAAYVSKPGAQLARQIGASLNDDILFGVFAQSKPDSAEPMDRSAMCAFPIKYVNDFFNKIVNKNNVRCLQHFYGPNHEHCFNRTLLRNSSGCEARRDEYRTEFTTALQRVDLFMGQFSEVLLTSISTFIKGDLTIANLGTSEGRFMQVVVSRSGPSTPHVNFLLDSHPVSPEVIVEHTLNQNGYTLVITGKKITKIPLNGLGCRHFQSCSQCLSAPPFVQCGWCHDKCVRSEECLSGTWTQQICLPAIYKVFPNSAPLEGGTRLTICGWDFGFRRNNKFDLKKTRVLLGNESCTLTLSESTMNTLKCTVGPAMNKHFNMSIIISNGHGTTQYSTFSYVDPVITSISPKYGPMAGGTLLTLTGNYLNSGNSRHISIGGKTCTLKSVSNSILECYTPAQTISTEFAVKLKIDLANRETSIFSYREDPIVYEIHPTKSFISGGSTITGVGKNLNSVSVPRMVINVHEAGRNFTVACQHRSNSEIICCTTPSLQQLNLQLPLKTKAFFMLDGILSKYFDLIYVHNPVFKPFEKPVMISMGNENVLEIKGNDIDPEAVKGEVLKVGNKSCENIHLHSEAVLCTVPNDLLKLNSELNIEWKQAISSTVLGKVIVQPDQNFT

Legend:
[1] = biological target: human MET-hIgG Fc fusion protein (Sino Biological Inc.) (human) (UniProt P08581); test: capture ELISA: cys-diabody coated, MET-hFc applied, detected with anti-human Fc
[2] = biological target: human MET-hIgG Fc fusion protein (Sino Biological Inc.) (human) (UniProt P08581); test: capture ELISA: cys-diabody coated on the plate, human MET-hIgG Fc applied, detected with alkaline phosphatase anti-human IgG

B1: C2 cys-diabody (other)
chain: QVQLQESGGGLVQPGGSLRLSCAASGFTFSSYAMSWVRQAPGKGLEWVSAISGSGGSTYYADSVKGRFTISRDNSKNTLYLQMNSLRAEDTAVYYCASQHVGEQSRYFDYWGQGTLVTVSSGGGGGSDIVMTQSPSSLSASIGDRVTITCRASHSISSYVNWYQKKPGKAPNLLIYAASYLPRGVPSRFSGSGLGTDFTLTISNLQPEDFATYYCQESYSTPYSFGQGTKVDIKRAAAEQKLISEEDLNGAAHHHHHHC
notes: Expressed in E. coli and purified through the His tag; also called C2 diabody
binding [1]: binds | binding [2]: binds

B2: H5 cys-diabody (other)
chain: QVQLQESGGGLVQPGGSLRLSCAASGFTFSNYAMSWVRQAPGKGLEWVSAISGSGGSTYYADSVKGRFTISRDNSKNTLYLQMNSLRAEDTAVYYCAKDRFRAAAYWGQGTLVTVSSGGGGGSQSVLTQPPSVSAAPGQKVTISCTGSSSNIGAGYDVHWYQQLPGTAPKLLIYGNSNRPSGVPDRFSGSKSGTSASLAISGLQSEDEADYYCAAWDDILNGEIFGGGTKVTVLGAAAEQKLISEEDLNGAAHHHHHHC
notes: Expressed in E. coli and purified through the His tag; also called H5 diabody
binding [1]: binds | binding [2]: binds
